# Laboratory results reported in PubChem BioAssay AID1347075 (National Center for Advancing Translational Sciences (NCATS), 2019).
# Out of some 400,000 compounds screened, about 5,500 (1.4%) were called active. Inconclusive results, whose numbers are uncertain, are shown with a selection of clear calls. Calls follow the shape of the dose curve; as a rule, active = well fitted cell-killing curve with a large enough effect; inconclusive = small, poorly fitted or top-dose-only effect, or effect the other way; inactive = flat fitted curve, though single readings scatter. Where the call is inconclusive, the potency comes from a doubtful curve fit.
# Assay: qHTS assay for MDR1-selective chemotherapeutics: Primary screen using the parental adenocarcinoma cell KB-3-1; also: nearly all actives have a fitted effect of over 60% in size
# Conditions: KB-3-1 viability, CellTiter-Glo ATP luminescence, 72 h; activity change, negative = cytotoxic: at 46.1 µM (top of the series)
# In short: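 Viability of parental KB-3-1 cells, measured by CellTiter-Glo luminescence, followed a 72 h incubation at 37 °C with pinned compounds in phenol-red-free DMEM containing 10% FBS.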
# % is scaled to controls: 0 for no effect and ±100 for the full control effect; potency is read from the fitted curve at half-maximal effect.
Compound,Potency,"activity change, negative = cytotoxic"
O=C1C=C(NCc2ccccc2)c2ccccc2C1=O,"inconclusive: 18.4 µM [cytotoxic, single point]",–
OCCCCCN=c1cc(-c2ccccc2)oc2ccc(Cl)cc12,"inconclusive: 29.1 µM [cytotoxic, single point]",–
Cc1ccccc1C(=O)N1CCN(c2ccc(NC(=O)CSc3ccc(Cl)cc3)cc2)CC1,active: 18.4 µM,–
CC1Cc2cc(S(=O)(=O)NCc3ccc(Cl)cc3)ccc2N1C(=O)C1CCC1 (stereo not given),"inconclusive: 29.1 µM [cytotoxic, single point]",–
Cc1cc(=O)oc2cc(OCC(=O)OCC(=O)NC3CC3)ccc12,–,inactive: 0.242%
Cc1ccc(-c2n[nH]c(=S)n2-c2ccccc2)cc1,"inconclusive: 16.4 µM [rising, partial curve, poor fit]",–
COc1cc2c(cc1OC)C(c1cc(Br)ccc1F)N(C(=O)CCl)CC2 (stereo not given),"inconclusive: 16.4 µM [cytotoxic, single point]",–
Cc1cc(Oc2nc3c(C)cccn3c(=O)c2/C=C(\C#N)S(=O)(=O)c2ccc(Cl)cc2)ccc1Cl,"inconclusive: 32.6 µM [cytotoxic, single point]",–
CCOC(=O)c1c(NC(=O)c2cc3n(n2)C(C(F)(F)F)CC(c2cccs2)N3)sc(C)c1C (stereo not given),"inconclusive: 29.1 µM [cytotoxic, single point]",–
CC/C(=N\NC(=O)c1ccc(CN(C)S(=O)(=O)c2ccc(C)cc2)cc1)c1ccc(OC(F)F)cc1,"inconclusive: 29.1 µM [cytotoxic, single point]",–
CC(C)c1nnc(NC(=O)C2CCN(S(=O)(=O)c3ccc(-n4cnnn4)cc3)CC2)s1,–,inactive: 0.249%
O=C(c1cn(-c2ccccc2)nc1-c1cccs1)N1CCN(c2ccccc2)CC1,active: 8.2 µM,–
O=S(=O)(N/N=C/c1ccccc1OCc1ccc(Cl)cc1)c1ccccc1,"inconclusive: 29.1 µM [cytotoxic, single point]",–
Cc1ccc(NC(=O)c2nc[nH]c2C(=O)N2CCN(c3ccccc3)CC2)cc1,–,inactive: -2.58%
COc1ccc(C(=O)c2c[nH]c3ccccc23)cc1,–,inactive: -1.8%
O=C(NCCc1c[nH]c2ccccc12)C(=O)NCC1OCCCN1S(=O)(=O)c1ccc(F)cc1 (stereo not given),–,inactive: 4.75%
COc1ccc(Cl)cc1NC(=O)Cn1nnc2sc(-c3ccccc3)cc2c1=O,–,inactive: 2.33%
O=C1N=C(N2CCOCC2)S/C1=C/c1cc2c(cc1[N+](=O)[O-])OCO2,–,inactive: -6.59%
CCc1ccc(NC(=O)CSc2nnc(-c3ccccn3)n2C)cc1,–,inactive: -1.08%
COc1ccc(Nc2nc(N)nc(CCl)n2)cc1,"inconclusive: 29.1 µM [cytotoxic, single point]",–
CN(C)c1nc(N)nc(CSc2nnnn2-c2cccc3ccccc23)n1,"inconclusive: 18.4 µM [cytotoxic, single point]",–
Cc1cc(C(=O)OCC(=O)N2CC(=O)Nc3ccccc32)c(C)n1-c1ccc(F)cc1,"inconclusive: 29.1 µM [cytotoxic, single point]",–
N#Cc1c(N2CCN(C(=O)c3ccccc3)CC2)nc(-c2ccccc2)c2c1CCCC2,"inconclusive: 29.1 µM [cytotoxic, single point]",–

Compound,Potency,"activity change, negative = cytotoxic"
O=C(CCCn1cnc([N+](=O)[O-])n1)Nc1cccc(Cl)c1Cl,"inconclusive: 29.1 µM [rising, single point]",–
C/C(=N\Nc1ccc([N+](=O)[O-])cc1)c1ccc(N2CCOCC2)cc1,–,inactive: 12.8%
Cc1cc(-c2csc3nc[nH]c(=S)c23)cc(C)c1C,"inconclusive: 23.1 µM [cytotoxic, single point]",–
CC(=O)c1cccc(NC(=S)Nc2cccc3ccccc23)c1,–,inactive: 1.72%
Cc1ccc(NC(=O)C2CC(=O)N(c3ccc4c(c3)OCCO4)C2)cc1S(=O)(=O)N1CCCCCC1 (stereo not given),"inconclusive: 29.1 µM [cytotoxic, single point]",–
COc1c2occc2c(OC)c2c(=O)cc(C)oc12,–,inactive: -0.364%
Cc1[nH]c(=S)c(C#N)c(C)c1CC(=O)c1ccc(Br)cc1,–,inactive: -1.96%
COc1ccc2c(c1)C(=O)C(=O)N2CCS(=O)(=O)c1ccccc1,"inconclusive: 29.1 µM [cytotoxic, single point]",–
Cc1cc(OCC(=O)Nc2ccccc2N2CCOCC2)c(C(C)C)cc1Cl,"inconclusive: 29.1 µM [cytotoxic, single point]",–
COc1ccc(/C=N/NC(=O)c2cc(-c3cccnc3)nc3ccccc23)c(OC)c1,"inconclusive: 10.3 µM [rising, partial curve]",–
CCC(=O)Nc1cccc(NC(=O)c2ccccc2Cl)c1,"inconclusive: 0.0366 µM [rising, full curve]",–
C[C@@H]1CCCCO[C@@H](CN(C)S(=O)(=O)c2ccccc2)[C@@H](C)CN([C@H](C)CO)C(=O)c2cc(NS(=O)(=O)c3ccc(F)cc3)ccc2O1,"inconclusive: 29.1 µM [cytotoxic, single point]",–
O=C(C1CCC(CNc2c(N3CCCCC3)c(=O)c2=O)CC1)N1CCc2ccccc2C1 (stereo not given),"inconclusive: 20.6 µM [cytotoxic, single point]",–
O=S(=O)(NCc1ccc(F)cc1)c1ccc2[nH]c3c(c2c1)CCCC3,–,inactive: -3.88%
O=C(CCCNS(=O)(=O)c1cccc2nsnc12)NCc1ccc(F)cc1,–,inactive: 6.07%
COc1cc(C(=O)N2CCN(c3cccc(C)c3C)CC2)cc(OC)c1OC,active: 0.82 µM,–
O=C1NC(c2ccccc2)C(C(=O)c2cccs2)=C1O (stereo not given),–,inactive: -4.77%
Cc1ccccc1NC(=O)CCn1nc(-c2ccc(Cl)cc2)c2ccccc2c1=O,–,inactive: 15%
S=C(NCCSCc1c(Cl)cccc1Cl)Nc1ccccc1,"inconclusive: 23.1 µM [cytotoxic, single point]",–
CCn1nc(C(=O)N2CCN(Cc3nc4ccccc4s3)CC2)c2ccccc2c1=O,"inconclusive: 18.4 µM [cytotoxic, single point]",–
COc1ccc(NC(=O)c2sc3ncn(CC(=O)N4CCN(c5ccccn5)CC4)c(=O)c3c2C)c(OC)c1,–,inactive: 1.5%
Cc1cc(C)nc(N2CCCC(C(=O)Nc3nc4ccc(S(C)(=O)=O)cc4s3)C2)n1 (stereo not given),"inconclusive: 25.9 µM [rising, single point]",–

# Some of the entries above in a different format.
Compound | Potency | activity change, negative = cytotoxic
O=S(=O)(NCc1ccc(F)cc1)c1ccc2[nH]c3c(c2c1)CCCC3 | – | inactive: -3.88%
O=C(CCCNS(=O)(=O)c1cccc2nsnc12)NCc1ccc(F)cc1 | – | inactive: 6.07%
